Here are results for one substance from paper PMC10929188.

Protein sequences, listed by entry. Tags and fused reporters are not part of them.
UniProt P35222: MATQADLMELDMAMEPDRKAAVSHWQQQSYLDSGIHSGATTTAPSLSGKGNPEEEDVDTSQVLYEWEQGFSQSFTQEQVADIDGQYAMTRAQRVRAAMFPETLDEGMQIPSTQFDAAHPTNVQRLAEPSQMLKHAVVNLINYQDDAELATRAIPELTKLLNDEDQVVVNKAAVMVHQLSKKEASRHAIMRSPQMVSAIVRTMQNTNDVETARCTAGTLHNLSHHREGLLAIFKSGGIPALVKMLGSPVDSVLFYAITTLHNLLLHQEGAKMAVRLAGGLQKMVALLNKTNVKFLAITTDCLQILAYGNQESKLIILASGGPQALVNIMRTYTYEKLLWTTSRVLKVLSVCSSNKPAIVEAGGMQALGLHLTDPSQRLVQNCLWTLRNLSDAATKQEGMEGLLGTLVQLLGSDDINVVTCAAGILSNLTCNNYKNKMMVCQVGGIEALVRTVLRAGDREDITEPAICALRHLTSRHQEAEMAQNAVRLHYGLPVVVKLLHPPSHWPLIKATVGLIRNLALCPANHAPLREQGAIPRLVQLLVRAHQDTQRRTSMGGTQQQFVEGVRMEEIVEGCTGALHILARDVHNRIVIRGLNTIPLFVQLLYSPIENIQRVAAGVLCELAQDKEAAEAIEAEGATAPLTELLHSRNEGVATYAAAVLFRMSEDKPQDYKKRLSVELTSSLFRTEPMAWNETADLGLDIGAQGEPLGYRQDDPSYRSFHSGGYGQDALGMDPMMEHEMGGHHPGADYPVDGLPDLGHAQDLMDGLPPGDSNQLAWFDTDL
UniProt P63104: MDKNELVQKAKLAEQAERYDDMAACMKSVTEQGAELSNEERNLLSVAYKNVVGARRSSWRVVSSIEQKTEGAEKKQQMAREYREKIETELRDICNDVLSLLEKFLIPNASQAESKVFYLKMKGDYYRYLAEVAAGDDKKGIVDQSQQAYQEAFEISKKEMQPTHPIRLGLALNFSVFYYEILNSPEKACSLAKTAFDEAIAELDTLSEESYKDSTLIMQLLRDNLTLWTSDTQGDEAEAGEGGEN

These are yes or no findings as the source states them, for the method shown. Binding seen in cells or lysates may run through a third protein. Some binding calls cover weakened binding; strength is not graded here.

In this assay the target is β-catenin (human (endogenous in MHCC-97H)) (UniProt P35222). Put plainly: co-IP; HCC cell lysates (MHCC-97H), about 1 ug/uL protein, 1 ug antibody against the target protein at 4 C for 12 h, protein A agarose beads, washed with RIPA lysate buffer, western blot; cells transfected with YWHAZ plasmid, siSLC2A1-DT, SLC2A1-DT plasmid or siYWHAZ.

Turning to “tyrosine 3-monooxygenase/tryptophan 5-monooxygenase activation protein zeta (YWHAZ) (from UniProt P63104 1-245)”, the binding entry is “binds”.
